# The other results are listed elsewhere or left out. Shown are side measurements of this screen, not its main read-out; they come without a call. Most of these compounds were active or inconclusive in the main read-out, so they are no random draw. The note in brackets gives the kind of curve behind each potency; many fits are weak.
# Experiment: IkB Signaling
# Settings: ABC-DLBCL IkBa-CBG/CBR dual luciferase ratio (green luciferase fused to IkBa over red control in OCI-Ly3 lymphoma cells), 4 h
# Summary of the method: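 In this assay, an IκBα–CBG68 fusion accumulates when IKK-driven degradation is blocked; native CBR normalizes for cell number. OCI-Ly3 cells were treated 4 h with compound and doxycycline, then green and red light read after Chroma-Glo addition.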
# [1] = measured here: control luc red channel unless noted
# [2] = measured here: IkB-luc green channel
# [3] = measured here: control luc red channel
smiles,measurement,setting,value
CSc1ccc(CCNC(=O)c2ccc3c(Cl)c4c(nc3c2)CCCC4)cc1,AC50,[1],"3.16 µM [falling, full curve]"
CCCSc1ncc(Cl)c(C(=O)Nc2nc3ccc(C)cc3s2)n1,AC50,[1],"31.6 µM [falling, partial curve, poor fit]"
Cc1ccc(C)c(N2CCN(C(=O)C3CCN(S(=O)(=O)c4c(C)noc4C)CC3)CC2)c1,AC50,[1],"15.8 µM [falling, partial curve]"
O=C(Cn1cnnn1)OCC(=O)c1ccc(Cl)s1,AC50,[1],"1 µM [falling, full curve]"
O=C(Nc1cccnc1)c1ccc(Cl)c(S(=O)(=O)N2CCCCCC2)c1,AC50,[1],"12.6 µM [falling, partial curve]"
CC1CCCC(C)N1C(=O)CN1CCN(c2nc(-c3ccc(F)cc3)cs2)CC1 (stereo not drawn),AC50,[2],"31.6 µM [falling, single point]"
same,AC50,[3],"25.1 µM [falling, partial curve]"
COc1ccc(S(=O)(=O)c2c(O)c3ccc(C(=O)Nc4ccccc4)cc3[nH]c2=O)cc1,AC50,[1],"12.6 µM [falling, partial curve]"
Cc1nn(C)cc1CN(C)C(=O)c1sc2cccc(Cl)c2c1Cl,AC50,[1],"6.31 µM [falling, partial curve]"
Cc1ccc(Cl)cc1NC(=O)C1CCCN(c2cnccn2)C1 (stereo not drawn),AC50,[1],"12.6 µM [falling, partial curve]"
CCc1nn(CC(=O)Nc2cccc(C(C)=O)c2)c(=O)c2cc3sccc3n12,AC50,[1],"1 µM [rising, full curve, poor fit]"
CCS(=O)(=O)c1ncc(Cl)c(C(=O)NCc2ccc(OC)cc2)n1,AC50,[1],"7.94 µM [falling, full curve]"
Cc1cccc(-c2noc(CN(C(=O)c3ccc(Br)o3)C(C)C)n2)c1,AC50,[1],"25.1 µM [falling, partial curve]"
CCOC(=O)c1ccccc1NC(=O)Cn1c(=O)n(Cc2nc(C)no2)c(=O)c2ccccc21,AC50,[1],"1 µM [falling, full curve, poor fit]"
O=C(CCn1c(=O)c2ccccc2n(Cc2cccc(Cl)c2)c1=O)NCCc1ccccc1,AC50,[1],"15.8 µM [falling, partial curve]"
O=C(NCC1(c2ccccc2)CCCC1)C(=O)Nc1cccc(Br)c1,AC50,[1],"0.316 µM [rising, full curve, poor fit]"
O=C1CCCC2=C1C(c1cccs1)n1nc(SCc3ccccc3F)nc1N2 (stereo not drawn),AC50,[1],"20 µM [falling, partial curve]"
COc1cc(Nc2ncc3c(n2)CCN(Cc2cccc(C)c2)C3)cc(OC)c1,AC50,[1],"12.6 µM [falling, partial curve]"
Cc1oc2c(C)c3oc(=O)c(CC(=O)N4CCCCC4)c(C)c3cc2c1C,AC50,[1],"31.6 µM [falling, single point]"
COc1ccc(CCNc2oc(COc3ccccc3F)nc2C#N)cc1,AC50,[1],"15.8 µM [falling, partial curve]"
CCc1ccc(C2CC(=O)N3CN(c4ccccc4)CSC3=C2C#N)cc1 (stereo not drawn),AC50,[1],"10 µM [falling, partial curve]"
COc1cccc(C(=O)Nc2nc(-c3ccc(Br)cc3)ns2)c1,AC50,[1],"3.98 µM [falling, full curve]"
Cc1ccccc1OCCn1c(CCNC(=O)C2CCCCC2)nc2ccccc21,AC50,[1],"31.6 µM [falling, single point]"
CC(C)(C)C(=O)Nc1ccccc1C(=O)OCc1cc(=O)n2ccsc2n1,AC50,[1],"6.31 µM [falling, full curve]"
COCc1nnc(NC(=O)c2sc3ccccc3c2Cl)s1,AC50,[1],"12.6 µM [falling, partial curve]"
CCc1ccccc1-n1nnc(-c2nsc(NC(=O)c3ccc(C)c(C)c3)n2)c1C,AC50,[1],"15.8 µM [falling, partial curve]"
COCCCNC(=O)CSC1=Nc2ccccc2C2=NC(CCC(=O)NCc3ccc(OC)cc3)C(=O)N12 (stereo not drawn),AC50,[1],"6.31 µM [rising, partial curve, poor fit]"
Cc1oc(-c2ccc(Cl)cc2)nc1CN1CCCC(C(=O)NCc2ccccc2)C1 (stereo not drawn),AC50,[1],"12.6 µM [falling, partial curve]"
C=Cc1c(C)c2cc3nc(cc4[nH]c(cc5nc(cc1[nH]2)C(C)=C5CCC(=O)O)c(CCC(=O)OC)c4C)[C@@]1(C)C3=CC=C(C(=O)OC)[C@H]1C(=O)OC (tested in a mixture with another compound),AC50,[1],"10 µM [falling, partial curve]"
CCN1CCN(C(c2ccccc2Cl)c2c(O)cc(C)n(CCOC)c2=O)CC1 (stereo not drawn),AC50,[1],"0.0501 µM [falling, full curve, poor fit]"
Cc1nnc(NC(=O)c2ccc(S(=O)(=O)N(C)Cc3ccccc3)cc2)o1,AC50,[1],"6.31 µM [rising, single point] [measured here: IkB-luc green channel]"
Cc1cc(SCC(=O)NC(=O)NCc2ccco2)nc2c(C)cccc12,AC50,[1],"25.1 µM [rising, partial curve] [measured here: IkB-luc green channel]"
Cc1ccc(C)c(N2CCN(CCCNC(=O)c3ccc4nc(CCc5ccccc5)oc4c3)CC2)c1,AC50,[1],"20 µM [falling, single point]"
COc1ccc(OC)c(NS(=O)(=O)c2ccc(N3CCCCS3(=O)=O)cc2)c1,AC50,[1],"0.0794 µM [falling, full curve, poor fit]"
Cc1ccc(C(=O)N/C(=C\c2ccc(Cl)cc2)C(=O)NC2CCCCC2)cc1,AC50,[1],"15.8 µM [falling, partial curve]"
COc1ccc(C(=O)c2sc(Nc3ccccc3)nc2N)cc1,AC50,[1],"7.94 µM [falling, full curve]"
CC(=O)c1cccc(NC(=O)CN(c2cc(C)cc(C)c2)S(=O)(=O)c2c(C)noc2C)c1,AC50,[1],"10 µM [falling, partial curve]"
Cc1cc(-n2ccnc(NCCc3ccc(S(N)(=O)=O)cc3)c2=O)ccc1Br,AC50,[1],"31.6 µM [falling, partial curve]"
COc1ccc(-c2onc(C)c2C)cc1S(=O)(=O)N(C)Cc1ccccc1,AC50,[1],"25.1 µM [falling, single point]"
COc1ccc(NC(=O)c2ccco2)cc1NC(=O)c1cc(OC)c(OC)c(OC)c1,AC50,[1],"15.8 µM [falling, single point]"
CC(C)CCn1c(/C=C/c2ccccc2)nc2ccccc21,AC50,[1],"31.6 µM [falling, partial curve]"
Cc1ccc(-c2cn3ccc(C)cc3n2)cc1,AC50,[1],"2.51 µM [falling, full curve]"
Cc1cc(C)cc(NC(=O)CSc2nc3nccnc3c(=O)n2CCc2c[nH]c3ccccc23)c1,AC50,[1],"0.501 µM [falling, full curve]"
O=C(Nc1ccccc1Cl)N1CCSc2ccccc21,AC50,[1],"39.8 µM [rising, single point]"
N#Cc1nc(COc2ccc(Cl)cc2)oc1NCc1ccc2c(c1)OCO2,AC50,[1],"12.6 µM [falling, partial curve]"
CCOC(=O)Cn1c(=O)n(C2CCCCC2)c2nc(-c3c(F)cccc3Cl)nc(C(N)=O)c21,AC50,[1],"25.1 µM [falling, single point]"
Nc1nc(Nc2ccccc2)nc2c1ncn2[C@@H]1O[C@@H](CO)[C@H](O)[C@@H]1O,AC50,[2],"0.0794 µM [rising, full curve]"
same,AC50,[3],"0.01 µM [rising, full curve]"
Oc1c(C(c2ccco2)N2CCN(C(c3ccccc3)c3ccccc3)CC2)sc2ncnn12 (stereo not drawn),AC50,[1],"3.16 µM [rising, full curve] [measured here: IkB-luc green channel]"
Cc1cccc(NC(=O)Cn2c(=O)n(CCCCCC(=O)NCc3ccc4c(c3)OCO4)c(=O)c3sccc32)c1,AC50,[1],"7.94 µM [falling, partial curve]"
CC(=O)N1C(=O)N(C)C2C1N(C(C)=O)C(=O)N2C (stereo not drawn),AC50,[1],"631 nM [rising, partial curve] [measured here: IkB-luc green channel]"
COC(=O)c1scc(-c2ccc(C)cc2)c1S(=O)(=O)Nc1cc(C)ccc1OC,AC50,[1],"20 µM [falling, partial curve, poor fit]"
COc1ccccc1NC(=O)c1cc2ccccc2o/c1=N\O,AC50,[2],"5.01 µM [rising, partial curve]"
same,AC50,[3],"39.8 µM [falling, single point]"
COC(=O)/C=C/S(=O)(=O)c1ccc(NC(C)=O)cc1,AC50,[2],"6.31 µM [falling, full curve]"
same,AC50,[3],"3.16 µM [falling, full curve]"
O=C(c1ccc2c(c1)N(Cc1ccccc1)C(=O)c1ccccc1S2(=O)=O)N1CCN(Cc2ccccc2)CC1,AC50,[1],"5.01 µM [falling, full curve]"
COc1cccc(-c2cnc(NCc3cc(Cl)ccc3O)n2C)c1,AC50,[1],"31.6 µM [falling, single point]"
COc1ccc(Cn2c(=O)c3oc4ccccc4c3n(Cc3ccccc3)c2=O)cc1,AC50,[1],"39.8 µM [falling, single point]"
CCOC(=O)c1[nH]c(C)c(CCC(=O)NCc2cccc(Cl)c2)c1C,AC50,[1],"0.2 µM [falling, full curve, poor fit]"
O=C(CSc1c2c(nc3ccccc13)CCC2)Nc1ccc(F)cc1F,AC50,[1],"3.98 µM [falling, partial curve]"
COc1ccccc1CCNC(=O)Cc1c(C)c2c(O)cc(C)cc2oc1=O,AC50,[1],"20 µM [falling, partial curve]"
COC(=O)c1ccc([C@@H]2Nc3c(cccc3C(F)(F)F)[C@@H]3C=CC[C@@H]32)cc1,AC50,[1],"20 µM [falling, partial curve]"

# 14 entries from above, as tab-separated lines:
smiles	measurement	setting	value
O=C(Cn1cnnn1)OCC(=O)c1ccc(Cl)s1	AC50	[1]	1 µM [falling, full curve]
O=C(Nc1cccnc1)c1ccc(Cl)c(S(=O)(=O)N2CCCCCC2)c1	AC50	[1]	12.6 µM [falling, partial curve]
CC1CCCC(C)N1C(=O)CN1CCN(c2nc(-c3ccc(F)cc3)cs2)CC1 (stereo not drawn)	AC50	[2]	31.6 µM [falling, single point]
same	AC50	[3]	25.1 µM [falling, partial curve]
COc1ccc(S(=O)(=O)c2c(O)c3ccc(C(=O)Nc4ccccc4)cc3[nH]c2=O)cc1	AC50	[1]	12.6 µM [falling, partial curve]
Cc1nn(C)cc1CN(C)C(=O)c1sc2cccc(Cl)c2c1Cl	AC50	[1]	6.31 µM [falling, partial curve]
Cc1ccc(Cl)cc1NC(=O)C1CCCN(c2cnccn2)C1 (stereo not drawn)	AC50	[1]	12.6 µM [falling, partial curve]
CCc1nn(CC(=O)Nc2cccc(C(C)=O)c2)c(=O)c2cc3sccc3n12	AC50	[1]	1 µM [rising, full curve, poor fit]
CCS(=O)(=O)c1ncc(Cl)c(C(=O)NCc2ccc(OC)cc2)n1	AC50	[1]	7.94 µM [falling, full curve]
Cc1cccc(-c2noc(CN(C(=O)c3ccc(Br)o3)C(C)C)n2)c1	AC50	[1]	25.1 µM [falling, partial curve]
CCOC(=O)c1ccccc1NC(=O)Cn1c(=O)n(Cc2nc(C)no2)c(=O)c2ccccc21	AC50	[1]	1 µM [falling, full curve, poor fit]
O=C(CCn1c(=O)c2ccccc2n(Cc2cccc(Cl)c2)c1=O)NCCc1ccccc1	AC50	[1]	15.8 µM [falling, partial curve]
O=C(NCC1(c2ccccc2)CCCC1)C(=O)Nc1cccc(Br)c1	AC50	[1]	0.316 µM [rising, full curve, poor fit]
O=C1CCCC2=C1C(c1cccs1)n1nc(SCc3ccccc3F)nc1N2 (stereo not drawn)	AC50	[1]	20 µM [falling, partial curve]
